In patent US20090304654A1, “METHODS FOR ISOLATING ADIPOSE-DERIVED STEM CELLS AND THERAPEUTIC USE THEREOF” (REGENTS OF THE UNIVERSITY OF CALIFORNIA, priority 2008, published 2009):

Test system: ADSC
Assay: EdU labeling of ADSC in vitro
Type: cell-based, rat

SMILES: C#Cc1cn([C@H]2C[C@H](O)[C@@H](CO)O2)c(=O)[nH]c1=O [EdU, 5-ethynyl-2-deoxyuridine]
- cells EdU-labeled (0-50 uM EdU, 24 h, regardless of concentration (P>0.05)): approximately 50%
- EdU signal in positively labeled cells (10 uM EdU, split at 1 to 21 days (P<0.01)): decreased with time
